The list does not hold the whole screen: its compounds were picked by chemical class. Not every dose and run of a compound is shown. T/C gives the treated animals as a percentage of the vehicle group. Where survival is the endpoint, this PubChem deposit counts one and a half times the control or more as active, and values a quarter to a half above the control carry no call in these data; other NCI protocols may use other cut-offs. Some entries show no survivor count and are marked so; the dose need not have been tolerated. Schedule codes are those of the source, read here as Q, the interval in days (D) or hours (H), X, the number of doses. Some entries hold several experiments; the values are given in rising order.
Test system: BDF1 mice, C1498 leukemia ip, median survival T/C
Assay: NCI In Vivo Anticancer Drug Screen. Data for tumor model C1498 Myeloid Leukemia (intraperitoneal) in B6D2F1 (BDF1) mice
Conditions: T/C endpoint: median survival time, schedule: Q01DX010 (ip), vehicle: saline, higher T/C = longer survival
Procedure: The antitumor activity of compounds was measured in mice bearing transplantable tumors. Survival or tumor size were measured and the results are expressed as the measurement made in the treated group (T) divided by the measurement made in the vehicle treated control group (C). The tumor model used in this assay is C1498 Myeloid Leukemia (intraperitoneal) in B6D2F1 (BDF1) mice

`CN(CCCl)CCCl` was tested, and the T/C (dose: 0.13 mg/kg/injection) was 145 [survivor count not shown] and 161 % of control [survivor count not shown], the T/C (dose: 0.25 mg/kg/injection) was 95 [survivor count not shown] and 109 % of control [survivor count not shown] and the T/C (dose: 0.5 mg/kg/injection) was 95 [survivor count not shown] and 100 % of control [survivor count not shown]. The T/C (dose: 1.0 mg/kg/injection) was 95 [survivor count not shown] and 104 % of control [survivor count not shown].

From PubChem BioAssay AID312 (DTP/NCI, 2004)
